From article PMC12514197
These are yes or no findings as the source states them, for the method shown. Some entries that bind do so weakly or less than the wild type.

Molecular target: T1, beta dystroglycan chain of recombinant prodystroglycan (human) (UniProt Q14118)
T1 sequence: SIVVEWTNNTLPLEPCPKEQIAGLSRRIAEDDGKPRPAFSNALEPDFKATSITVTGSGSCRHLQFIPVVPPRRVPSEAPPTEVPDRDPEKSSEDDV
Experiment: nickel affinity co-purification; secreted prodystroglycan purified from the media on Ni-NTA / His60 Ni IMAC resin by the C-terminal His6 tag of the beta chain; alpha chain followed by Coomassie stain and anti-DGN blot

B1: alpha dystroglycan chain of recombinant prodystroglycan (domain or fragment, UniProt Q14118 28-653)
chain: QSHWPSEPSEAVRDWENQLEASMHSVLSDLHEAVPTVVGIPDGTAVVGRSFRVTIPTDLIASSGDIIKVSAAGKEALPSWLHWDSQSHTLEGLPLDTDKGVHYISVSATRLGANGSHIPQTSSVFSIEVYPEDHSELQSVRTASPDPGEVVSSACAADEPVTVLTVILDADLTKMTPKQRIDLLHRMRSFSEVELHNMKLVPVVNNRLFDMSAFMAGPGNAKKVVENGALLSWKLGCSLNQNSVPDIHGVEAPAREGAMSAQLGYPVVGWHIANKKPPLPKRVAAQIHATPTPVTAIGPPTTAIQEPPSRIVPTPTSPAIAPPTETMAPPVRDPVPGKPTVTIRTRGAIIQTPTLGPIQPTRVSEAGTTVPGQIRPTMTIPGYVEPTAVATPPTTTTKKPRVSTPKPATPSTDSTTTTTRRPTKKPRTPRPVPRVTTKVSITRLETASPPTRIRTTTSGVPRGGEPNQRPELKNHIDRVDAWVGTYFEVKIPSDTFYDHEDTTTDKLKLTLKLREQQLVGEKSWVQFNSNSQLMYGLPDSSHVGKHEYFMHATDKGGLSAVDAFEIHVHRRPQGDRAPARFKAKFVGDPALVLNDIHKKIALVKKLAFAFGDRNCSTITLQNITRG
modifications: heavily and heterogeneously O-glycosylated mucin-like domain
binding: binds
